Each structure is given as a SMILES string. Among all 210,000 compounds or so, about 5,900 (2.8%) were called active. Another 5% or so got no clear call; they are omitted. The call rests on the fitted dose curve; in most records, active means well fitted activation curve with a large enough effect; inconclusive means small, poorly fitted or top-dose-only effect; inactive means no such curve, though single readings can be large or run the other way. This is a selection; strong and weak results do not stand in their true shares. Entries without a call were filed so in the source.
Potency means the concentration at half of the fitted maximal effect.

A short description of this assay: qHTS Assay for Enhancers of SMN2 Splice Variant Expression. Further: nearly all actives have a fitted effect of over 55% in size. On activity change, positive = activation: % of control where 0% means no effect. The following applies: HEK293 SMN2-luciferase splicing reporter, luminescence, 30-36 h; activity change, positive = activation: at 46.1 µM (top of the series) unless noted. Put shortly:
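qHTS luciferase splicing reporter: luminescence rises when SMN2 exon 7 is included in transfected HEK293 cells. Compound exposure lasted 30-36 h at 37C, with 4.5 mM final sodium butyrate as control, followed by a ONE-Glo read.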
For the compound `COCc1cc(C)nc(SCc2nc3ccccc3c(=O)[nH]2)c1C#N`, the activity change, positive = activation is -45.5%.
Consider `CCOc1ccccc1NC(=O)c1cn(C2CCCC2)c(=O)c2c1c1ccccc1n2C`, for which the activity change, positive = activation worked out at 33.1%.
Still for that read-out and setting: the figure for `Cc1ccccc1Cn1nc(C)c(NC(=O)c2cc3n(n2)C(C(F)F)CC(C(F)F)N3)c1C` (configuration not stated) is 26.3%; for `CCC(C)N(C(=O)c1csnn1)C(C(=O)NC(C)(C)C)c1ccccc1` (configuration not stated) it is 18.1%.
The same measure, in the same setting: with `COc1cccc(NC(=O)c2ccccc2SC)c1` the figure was 33%.
As for `Clc1nc(-c2ccccn2)nc2scc(-c3ccccc3)c12`, the Potency is active: 5.62 µM.
In the case of `CSc1nc(N)c(C#N)c(-c2ccccc2Cl)c1C#N`, the activity change, positive = activation worked out at 33%.
`C/C(N)=C(/C#N)C(=O)CSc1nnc(-c2ccccc2Br)o1`: the Potency was active: 2.82 µM.
As for `CC1CCCC(C)N1C(=O)Nc1cccc(Cl)c1` (configuration not stated), the activity change, positive = activation was 44%.
With `CCOC(=O)C(C)c1n[nH]c(=O)c2ccccc12` (configuration not stated), the activity change, positive = activation came to 39%.
As for `COC(=O)c1ccc(NC(=O)c2cc3sccc3n2C)cc1`, the activity change, positive = activation was -33.7%.
Still for that read-out and setting: with `CC(C)C(=O)N1CCN(c2ccc(NC(=O)c3ccc(Br)o3)cc2)CC1` the figure was -42.5%.
With `CC(=O)c1ccc(N2Cc3ccccc3C2=NC(=O)c2cccs2)cc1`, the Potency is active: 14.1 µM.
With `COc1ccc(NC(=S)N(CCCN2CCOCC2)C(C)c2cc3cccc(OC)c3o2)cc1` (configuration not stated), the activity change, positive = activation was -13.7%.
Same read-out and setting: the figure for `CS(=O)(=O)c1cc([N+](=O)[O-])c(Sc2nc3ccccc3[nH]2)c([N+](=O)[O-])c1` is -62.8%.
Still for that read-out and setting: with `CCOC(=O)Cc1c(C)nc2c(-c3ccc(Cl)cc3)c[nH]n2c1=O` the figure was -30.4%; with `CN(C)S(=O)(=O)c1ccccc1C#N`, 47.6%.
In the case of `Cc1cccc(CN2CCN(CC(=O)NCCCN3CCN(c4ccc(F)cc4)CC3)C2=O)c1`, the activity change, positive = activation is -43.6%.
Take `C#C[C@]1(O)CCC2C3CCC4=C(CCC(=O)C4)C3CC[C@@]21C` (some centres not stated): the “activity change, positive = activation” value is inactive: 4.77%.
In the case of `Cc1c(OCC(=O)OC(C)C)ccc2c3c(c(=O)oc12)CCC3`, the activity change, positive = activation came to 40.6%.
Still for that read-out and setting: with `Cc1cnc(NC(=O)Nc2ccc(Cl)cc2)s1` the figure was inactive: 173%; with `O=C(CSc1ncnc2ccccc12)c1cccs1`, 144%.
`O=C(/C=C/c1ccc(Cl)c(Cl)c1)N1CCc2ccccc21`: the Potency is active: 7.08 µM.
With `Cc1ccccc1Cn1c(CN2CCc3ccccc3C2)nc2c1c(=O)n(C)c(=O)n2C`, the “activity change, positive = activation” value was inactive: -39.2%.
On the same count and under the same terms, with `COc1cccc(/C=C(/C#N)c2ccc(F)cc2)c1OCc1cccc(C(=O)O)c1` the figure was 46%.
On the same count and under the same terms, the figure for `O=[N+]([O-])c1nn(-c2ccc(Cl)cc2)n(O)c1=NCc1cccnc1` is -78.3%.
Same read-out and setting: the figure for `CC(NC(=O)CSc1n[nH]c(=O)n1C1CC1)C12CC3CC(CC(C3)C1)C2` (configuration not stated) is 36.1%; for `CCn1c(SCC(=O)Nc2cc(OC)ccc2OC)nnc1C1CCCCC1` it is 29.3%.
Regarding `CC(=O)NCCNC(=O)c1ccc(CSc2ccc(Cl)cc2)cc1`, the Potency was active: 12.6 µM.
The same measure, in the same setting: the figure for `Cc1cccc(NC(=O)c2sc3nc(N)c(C#N)cc3c2N)c1` is active: 15.8 µM; for `CC(=Nc1cccc(C)c1)c1sc2ccccc2c1O` it is active: 12.6 µM.
Same read-out and setting: with `Cc1ccc(-c2nn3c(C)nnc3c3ccccc23)cc1S(=O)(=O)NCc1ccco1` the figure was active: 12.6 µM.
With `O=C(Cc1cccc2ccccc12)N/N=C/c1ccc(Sc2cccc3cccnc23)o1`, the “activity change, positive = activation” value is inactive: -57.7%.
Regarding `O=C(NC1CCCCCC1)C(=S)NC1CCCCC1`, the “activity change, positive = activation” value is inactive: -36.2%.
Turning to `Nc1nnc(-c2cc3ccccc3oc2=O)s1`, the Potency was active: 17.8 µM.
Regarding `COc1ccccc1N(C)S(=O)(=O)c1ccc(C(=O)Nc2ccc3nc(C)sc3c2)cc1`, the “activity change, positive = activation” value was inactive: -50.6%.
In the case of `CCC(=O)Nc1ccc(/C(C)=N\NC(=O)c2ccc(C)s2)cc1`, the activity change, positive = activation was found to be 14.2%.
On the same count and under the same terms, with `COC(=O)c1c(C(=O)OC)c(C)n(Cc2ccco2)c1C` the figure was 31.6%; with `CCN(CC)S(=O)(=O)c1cccc(NC(=O)c2ccc(-n3nc(C)cc3C)cc2)c1`, inactive: -86.1%.
The same measure, in the same setting: the figure for `CCOc1ccc(C(=O)NC(=S)Nc2ccccc2N2CCOCC2)cc1Br` is -52.7%; for `COCCCNC(=O)c1sc2ncnc(N3CCc4ccccc4C3)c2c1C` it is -54.5%; for `O=C(CSc1nc2ccccc2n1S(=O)(=O)c1ccccc1)N1CCCCC1` it is 38.5%.
As to `CC(C)(C)NC(=O)CSc1nncn1-c1ccccc1`, the activity change, positive = activation is 30.3%.
On the same count and under the same terms, the figure for `COc1ccc(OC)c(S(=O)(=O)N2Cc3ccccc3CC2C(=O)O)c1` (configuration not stated) is 27.8%.
Consider `COc1ccc(C2(O)CCN(CCCCOc3ccccc3)CC2)cc1`, for which the activity change, positive = activation was 27.6%.
On the same count and under the same terms, the figure for `Cc1nn(Cc2ccc(Cl)c(Cl)c2)c(C)c1NC(=O)c1cc(CC(C)C)on1` is inactive: -69.6%; for `Cn1c(SCC(=O)OCC(=O)c2ccccc2)nnc1-c1cccs1` it is 28.3%.
As to `COC(=O)c1[nH]c2c(c1C)C(=O)CC(c1cccs1)C2` (configuration not stated), the activity change, positive = activation is 40.5%.
Same read-out and setting: the figure for `O=C(NC(CSCc1ccccc1)C(=O)N/N=C/c1ccc(O)cc1O)c1ccc([N+](=O)[O-])cc1` (configuration not stated) is -91.4%; for `O=C(Nc1nc(-c2ccccn2)cs1)c1ccco1` it is inactive: -85.3%.
Turning to `COc1ccc(-c2noc(CCC(=O)N(C)c3cc(Cl)ccc3OC)n2)cc1`, the “activity change, positive = activation” value is inactive: -40.6%.
The same measure, in the same setting: with `O=C(/C=C/c1ccc(Cl)cc1)NC(=S)Nc1ccc(CN2CCOCC2)cc1` the figure was 19.8%.

Source of the values: PubChem BioAssay AID1458 (National Center for Advancing Translational Sciences (NCATS), 2008).
